The results are deposited in PubChem (AID1224904; Broad Institute, 2016).

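Control-channel Italica luciferase signal in doxycycline-induced 293T-iDUX4 cells, given as percent activity after a 24-hour treatment. The test concentration is not given here. Percent change in the Italica control signal; more negative values mean stronger inhibition, which points to nonspecific, tet-on or cytotoxic effects.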

Values are in %. Common to all entries: measured here: Italica tet-on control reporter. This is a side read-out of the assay, for part of the compounds, not drawn at random.

| Compound | activity change (%) |
|---|---|
| `Cc1ccc(S(=O)(=O)N2CC[C@@H]3[C@H](CO)N(C)c4ccc(C#Cc5cccnc5)cc4[C@@H]32)cc1` | -13.32 |
| `COc1ccc2c3c([nH]c2c1)[C@@H](CO)N(Cc1ccccc1OC)CC31CCN(C)CC1` | -9.549 |
| `O=C(C[C@H]1C[C@H]2c3cc(NC(=O)Nc4ccccc4F)ccc3O[C@H]2[C@@H](CO)O1)NCCc1ccccc1` | 3.479 |
| `COc1ccc2c3c(n(C)c2c1)[C@@H](CO)N(Cc1ccccc1)CC31CCN(C(=O)C2CC2)CC1` | -3.674 |
| `COc1ccc2c3c(n(C)c2c1)[C@H](CO)N(C(=O)c1ccc(F)cc1)CC31CCN(C(=O)Nc2ccc(F)cc2)CC1` | -17.2 |
| `O=C(c1ccc2c(c1)OCO2)N1CCCCN2[C@H](C1)[C@H](c1ccc(-c3ccccc3)cc1)[C@@H]2CO` | -17.79 |
| `COc1ccc(C#Cc2ccc([C@H]3[C@@H](CO)N4C(=O)CN(C(=O)c5ccc(F)cc5)C[C@@H]34)cc2)cc1` | -29.25 |
| `COc1cccc(-c2ccc3c(c2)[C@H]2[C@H](CCN2C(=O)Cc2ccccc2)[C@H](CO)N3)c1` | -45.99 |
| `C[C@H](O)C#Cc1ccc([C@@H]2[C@@H](CO)N3CCCCN(S(=O)(=O)c4ccccc4)C[C@@H]23)cc1` | -55.09 |
| `COc1cccc(-c2ccc(C3[C@@H]4CN(S(=O)(=O)c5ccccc5C)C[C@H]3N4)cc2)c1` (stereo not given in full) | -26.49 |
| `COc1cccc(CN2CC3(C2)[C@H](c2ccccc2)[C@@H](CO)N3Cc2cccc(OC)c2)c1` | -24.97 |
| `O=C(C[C@@H]1CC[C@H]2[C@@H](COC[C@H](O)CN2Cc2nccs2)O1)N1CCC(Cc2ccccc2)CC1` | -15.05 |
| `N#Cc1ccc(-c2ccc3c(c2)[C@H]2[C@H](CCN2C(=O)C2CCCCC2)[C@@H](CO)N3)cc1` | 2.784 |
| `COc1ccccc1NC(=O)N(C)C[C@@H]1OCc2ccccc2-c2c(n(C)c3ccccc23)C(=O)N([C@@H](C)CO)C[C@H]1C` | 1.693 |
| `COc1cccc(-c2ccc3c(c2)[C@@H]2[C@@H](CCN2C(=O)Nc2ccccc2OC)[C@@H](CO)N3C)c1` | -85.01 |
| `Cc1ccc(S(=O)(=O)N2CC[C@@H]3[C@@H](CO)Nc4ccc(-c5ccccc5F)cc4[C@@H]32)cc1` | -13.28 |
| `COc1ccccc1C#Cc1ccc([C@H]2[C@@H](CO)N3CCCCN(CCC(F)(F)F)C[C@H]23)cc1` | -9.995 |
| `COc1ccc2c3c(n(C)c2c1)[C@@H](CO)N(C(=O)Nc1ccc(F)cc1)CC31CCN(S(=O)(=O)c2cccc(C)c2)CC1` | -32.18 |
| `COc1ccccc1NC(=O)N1CC(=O)N2[C@H](CO)[C@@H](c3ccc(-c4cccc(C)c4)cc3)[C@@H]2C1` | -48.94 |
| `CCc1cnc(N2[C@H](C#N)[C@@H](c3ccccc3C3=CCCC3)[C@@H]2CO)s1` | -11.98 |
| `N#Cc1cccc(-c2ccc3c(c2)[C@@H]2[C@@H](CCN2C(=O)c2ccc4c(c2)OCO4)[C@H](CO)N3)c1` | -59.76 |
| `Cn1cnc(S(=O)(=O)N2CCCCN3[C@H](CO)[C@@H](c4ccc(C#CC5CCCC5)cc4)[C@@H]3C2)c1` | -12.5 |
| `O=C(C[C@@H]1CC[C@H]2[C@@H](COC[C@@H](O)CN2Cc2ccccc2F)O1)NCc1ccccc1F` | -10.39 |
| `Cc1cccc(-c2ccc([C@@H]3[C@@H](CO)N4CCCCN(S(=O)(=O)c5cccs5)C[C@H]34)cc2)c1` | -8.222 |
| `CN1C(=O)c2cc(NC(=O)c3cccc(F)c3)ccc2OC[C@@H]2O[C@H](CC(=O)N3CCc4ccccc4C3)CC[C@H]21` | -3.496 |
| `COc1ccc2c3c(n(C)c2c1)[C@H](CO)N(Cc1ccccc1Cl)CC31CN(C(=O)CN(C)C)C1` | -13.86 |
| `N#C[C@H]1[C@@H](c2ccccc2-c2ccccc2)[C@@H](CO)N1C(=O)NC1CCCC1` | -14.7 |
| `COC(=O)[C@H]1[C@H](CO)[C@H]2Cn3c(ccc(-c4ccccc4)c3=O)[C@@H]1N2CC1CCCCC1` | -20.69 |
| `O=C(C[C@@H]1CC[C@@H]2[C@H](COC[C@@H](O)CN2Cc2cc(F)ccc2F)O1)N[C@@H]1CCN(Cc2ccccc2)C1` | -7.305 |
| `O=C(C1CC1)N1CC2(C1)[C@H](c1ccccc1)[C@@H](CO)N2Cc1ccc(Cl)cc1` | 0.7449 |
| `COc1ccccc1-c1ccc([C@@H]2[C@@H](CO)N3CCCCN(C(=O)c4cccnc4)C[C@H]23)cc1` | -17.57 |
| `COc1cccc(-c2ccc3c(c2)[C@H]2[C@H](CCN2C(=O)c2ccc(F)cc2)[C@@H](CO)N3C)c1` | -56.74 |
| `COc1cccc(-c2ccc([C@@H]3[C@@H](CO)N4CCCCN(S(=O)(=O)c5cccs5)C[C@H]34)cc2)c1` | -10.62 |
| `O=C(C[C@H]1CC[C@H]2[C@@H](COC[C@H](O)CN2C(=O)c2cccnc2)O1)Nc1ccc(-c2ccccc2)cc1` | -7.659 |
| `O=C(c1ccccn1)N1CC[C@@H]2[C@H](CO)Nc3ccc(C#Cc4cccnc4)cc3[C@@H]21` | 0.8489 |
| `CCN1[C@H](C(=O)N[C@@H](C)c2ccccc2)[C@@H](CO)[C@@H]2Cn3c(ccc(-c4cccc(F)c4)c3=O)[C@@H]21` | -8.863 |
| `C[C@@H]1CN([C@H](C)CO)C(=O)CCCn2cc(nn2)CO[C@@H]1CN(C)Cc1ccc(C(=O)Nc2ccccc2N)cc1` | 9.548 |
| `COc1cccc(C#Cc2ccc([C@@H]3[C@@H](CO)N4C(=O)CN(C(=O)Cc5cccnc5)C[C@@H]34)cc2)c1` | -29.08 |
| `CN(C)C(=O)c1cccc(-c2ccc3c(c2)[C@H]2[C@H](CCN2S(=O)(=O)c2ccccc2)[C@@H](CO)N3)c1` | -47.4 |
| `O=C(C[C@@H]1C[C@H]2c3cc(NC(=O)c4ccc5c(c4)OCO5)ccc3O[C@H]2[C@H](CO)O1)NCc1ccc(Oc2ccccc2)cc1` | -64.89 |
| `COc1ccc(C#Cc2ccc([C@@H]3[C@H](CO)N4C(=O)CN(C(=O)Nc5ccccc5F)C[C@@H]34)cc2)cc1` | -43.41 |
| `COc1ccc2c3c(n(C)c2c1)[C@H](CO)N(C(=O)CC1CC1)CC31CN(Cc2ccccc2)C1` | -40.56 |
| `CCC(=O)N1CC2(CN(Cc3ccccc3Cl)C2)c2c([nH]c3cc(OC)ccc23)[C@@H]1CO` | 4.183 |
| `Cc1ccc(S(=O)(=O)Nc2ccc3c(c2)C(=O)N([C@H](C)CO)C[C@@H](C)[C@@H](CN(C)C(=O)NC2CCCCC2)OCCCC[C@H](C)O3)cc1` | -25.59 |
| `CCCNC(=O)N1CC[C@@H]2[C@@H](CO)N(C)c3ccc(C#Cc4ccccc4F)cc3[C@@H]21` | -2.874 |
| `O=C(C[C@H]1CC[C@@H]2[C@H](COC[C@H](O)CN2CCc2ccccc2)O1)NCc1ccc(F)cc1` | -2.941 |
| `O=C(Cc1ccncc1)N1CCCCN2[C@@H](CO)[C@H](c3ccc(C#Cc4ccccc4F)cc3)[C@@H]2C1` | -8.308 |
| `O=C(c1cccnc1)N1CC(=O)N2[C@@H](CO)[C@@H](c3ccc(/C=C/c4ccccc4)cc3)[C@@H]2C1` | -13.45 |
| `COc1ccc(S(=O)(=O)N2CC[C@@H]3[C@@H](CO)Nc4ccc(-c5cccc(C#N)c5)cc4[C@@H]32)cc1` | -51.64 |
| `N#Cc1cccc(-c2ccc(C3[C@H]4CNC[C@@H]3N4Cc3cccc(F)c3)cc2)c1` (stereo not given in full) | 5.663 |
| `CO[C@H]1CN(C)C(=O)c2ccc(NC(=O)Nc3ccccc3F)cc2OC[C@H](C)N(C(C)=O)C[C@@H]1C` | -0.8257 |
| `CO[C@@H]1CN(C)C(=O)c2cc(NS(=O)(=O)c3cn(C)cn3)ccc2OC[C@@H](C)N(Cc2cccc(C(F)(F)F)c2)C[C@H]1C` | -32.17 |
| `C[C@H]1CN([C@@H](C)CO)C(=O)c2ccccc2-c2ccccc2CO[C@H]1CN(C)S(=O)(=O)c1ccc([N+](=O)[O-])cc1` | -32.38 |
| `Cc1ccccc1-c1ccc([C@H]2[C@H]3CN(C(=O)c4cccnc4)CCCCN3[C@H]2CO)cc1` | -5.345 |
| `COc1ccc2c3c(n(C)c2c1)[C@@H](CO)NCC31CCN(Cc2ccc(Cl)cc2)CC1` | -35.55 |
| `O=C(C[C@H]1CC[C@H]2[C@@H](COC[C@@H](O)CN2Cc2ccc(C(F)(F)F)cc2)O1)N1CCc2ccccc2C1` | -26.52 |

Repeated from the top, 7 entries:

{"compound": "Cc1ccc(S(=O)(=O)N2CC[C@@H]3[C@H](CO)N(C)c4ccc(C#Cc5cccnc5)cc4[C@@H]32)cc1", "activity change (%)": "-13.32"}
{"compound": "COc1ccc2c3c([nH]c2c1)[C@@H](CO)N(Cc1ccccc1OC)CC31CCN(C)CC1", "activity change (%)": "-9.549"}
{"compound": "O=C(C[C@H]1C[C@H]2c3cc(NC(=O)Nc4ccccc4F)ccc3O[C@H]2[C@@H](CO)O1)NCCc1ccccc1", "activity change (%)": "3.479"}
{"compound": "COc1ccc2c3c(n(C)c2c1)[C@@H](CO)N(Cc1ccccc1)CC31CCN(C(=O)C2CC2)CC1", "activity change (%)": "-3.674"}
{"compound": "COc1ccc2c3c(n(C)c2c1)[C@H](CO)N(C(=O)c1ccc(F)cc1)CC31CCN(C(=O)Nc2ccc(F)cc2)CC1", "activity change (%)": "-17.2"}
{"compound": "O=C(c1ccc2c(c1)OCO2)N1CCCCN2[C@H](C1)[C@H](c1ccc(-c3ccccc3)cc1)[C@@H]2CO", "activity change (%)": "-17.79"}
{"compound": "COc1ccc(C#Cc2ccc([C@H]3[C@@H](CO)N4C(=O)CN(C(=O)c5ccc(F)cc5)C[C@@H]34)cc2)cc1", "activity change (%)": "-29.25"}